# Data taken from patent US20060188959A1, “Crystal structure of worm NitFhit reveals that a Nit tetramer binds tow Fhit dimers” (Thomas Jefferson University, priority 2000, published 2006).
# At least one read-out could not be matched to a standard name with certainty.
# Tests used:
# [1] = biological target: T1, Fhit active site of NitFhit (Caenorhabditis elegans, UniProt O76463); experiment: ApppBODIPY substrate decay assay of the Fhit active site of NitFhit; assay type: biochemical, C. elegans; conditions: 1.5 μM ApppBODIPY, 0.15 pmol NitFhit, 21° C.
# T1 construct: generated an NdeI site at the initiator codon and an XhoI site 3′ of the stop codon; made in house; host or cells: E. coli strain ER2566
# T1 sequence (O76463 1-440): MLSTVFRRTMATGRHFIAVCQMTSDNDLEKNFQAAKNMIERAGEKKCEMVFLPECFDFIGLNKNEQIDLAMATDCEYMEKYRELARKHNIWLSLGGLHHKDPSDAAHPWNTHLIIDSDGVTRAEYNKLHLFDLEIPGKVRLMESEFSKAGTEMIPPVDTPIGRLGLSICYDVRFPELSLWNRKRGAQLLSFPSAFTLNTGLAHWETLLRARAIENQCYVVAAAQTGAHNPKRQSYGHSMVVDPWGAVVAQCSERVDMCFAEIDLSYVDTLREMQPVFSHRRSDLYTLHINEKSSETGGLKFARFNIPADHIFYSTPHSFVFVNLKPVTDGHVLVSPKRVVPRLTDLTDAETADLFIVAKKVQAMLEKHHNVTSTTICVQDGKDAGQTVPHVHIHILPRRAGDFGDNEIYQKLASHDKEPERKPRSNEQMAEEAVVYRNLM
# [2] = biological target: T1, Fhit active site of NitFhit; experiment: GpppBODIPY initial rate assay of the Fhit active site of NitFhit; assay type: biochemical, C. elegans; conditions: initial rates, GpppBODIPY titrated 40 μM to 2.5 μM, 0.5 pmol enzyme
substance,measurement,setting,value
"Appp-S-(4-4-fluoro-5,7-dimethyl-4-bora-3a,4a-diaza-s-indacine-3-yl) [ApppBODIPY]",Kcat/KM,[1],5.0 ± 0.1 10^5 s^−1 M^−1
"Gppp-S-(4-4-fluoro-5,7-dimethyl-4-bora-3a,4a-diaza-s-indacine-3-yl) [GpppBODIPY]",Kcat/KM,[2],6.3 10^5 s^−1 M^−1
